The values that follow come from publication PMC6529463.

In this test the target is T1, α-ENaC (α subunit of the renal epithelial sodium channel) (mouse (endogenous in mpkCCDc14)) (UniProt Q61180).
T1 sequence: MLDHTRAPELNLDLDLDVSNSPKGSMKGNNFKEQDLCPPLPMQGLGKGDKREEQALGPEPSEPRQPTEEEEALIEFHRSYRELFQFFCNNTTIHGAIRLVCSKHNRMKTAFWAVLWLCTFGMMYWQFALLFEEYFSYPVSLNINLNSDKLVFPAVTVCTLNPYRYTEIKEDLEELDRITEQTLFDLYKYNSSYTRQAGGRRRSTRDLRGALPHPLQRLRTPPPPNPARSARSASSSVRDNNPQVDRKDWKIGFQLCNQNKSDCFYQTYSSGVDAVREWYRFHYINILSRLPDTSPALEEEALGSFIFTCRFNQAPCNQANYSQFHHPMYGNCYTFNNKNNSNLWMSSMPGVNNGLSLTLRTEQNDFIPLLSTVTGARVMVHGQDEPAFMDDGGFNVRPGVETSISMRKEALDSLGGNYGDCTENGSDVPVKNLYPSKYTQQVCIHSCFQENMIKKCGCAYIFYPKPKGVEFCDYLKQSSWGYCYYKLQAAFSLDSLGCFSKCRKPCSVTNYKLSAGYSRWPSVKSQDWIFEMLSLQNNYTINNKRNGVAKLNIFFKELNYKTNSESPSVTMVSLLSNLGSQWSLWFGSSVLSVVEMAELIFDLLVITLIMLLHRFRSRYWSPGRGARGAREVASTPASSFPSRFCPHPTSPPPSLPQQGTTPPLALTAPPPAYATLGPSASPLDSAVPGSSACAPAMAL
The experiment in a line: co-IP; mpkCCDc14 cells with or without E2 (17β-estradiol) stimulation, lysed with NP40 (10 mM Tris-HCl pH 7.4, 10 mM NaCl); 0.5 mg lysate protein with α-ENaC antibody overnight at 4 °C, protein A beads; blotted with derlin-1 antibody.

No constants are given. Whether binding was seen depends on the method and setting. Binding seen in cells or lysates may run through a third protein. Some results given as binding are weak or reduced against the parent protein; the word gives no strength.

B1: derlin-1 (protein, UniProt Q99J56 1-251)
chain: MSDIGDWFRSIPAITRYWFAATVAVPLIGKLGIISPAYFFLWPEAFLYRFQIWRPFTATFYFPVGPGTGFLYLVNLYFLYQYSTRLEAGAFDGRPADYLFMLLFNWICIVITGLAMDMQLLMIPLIMSVLYVWAQLNRDLIVSFWFGTRFKACYLPWVILGFNYIIGGSVINELIGNLVGHLYFFLMFRYPMDLGGRNFLSTPQFLYRWLPSRRGGVSGFGVPPASMRRAADQNGGGGRHNWGQGFRLGDQ
Regarding B1, the binding entry is “binds”.
